Experimental data from article PMC7819943, “Rice protein-binding microarrays: a tool to detect cis-acting elements near promoter regions in rice”.
Some of the results follow.

The chains behind the UniProt entries cited, without tags or fusion partners.
UniProt Q0JBA9, entry or part of it: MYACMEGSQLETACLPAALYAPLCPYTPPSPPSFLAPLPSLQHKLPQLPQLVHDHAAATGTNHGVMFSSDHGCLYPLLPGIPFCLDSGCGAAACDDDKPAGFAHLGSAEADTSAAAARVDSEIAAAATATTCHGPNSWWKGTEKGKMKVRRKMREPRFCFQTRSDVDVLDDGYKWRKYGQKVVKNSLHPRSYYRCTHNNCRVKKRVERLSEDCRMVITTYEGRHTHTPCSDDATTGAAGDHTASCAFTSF

Biological target: OsWRKY34 (Oryza sativa, UniProt Q0JBA9 1-250)
Test: protein-binding microarray (RPBM); PBS, 2% BSA, 51.3 ng/ul salmon testes DNA, 50 uM zinc acetate, 200 nM TF, 25 C, 1 h; high values mean tight binding
Details: protein: recombinant; tags: N-terminal polyhistidine and DsRed monomer fusion (pET32a); label: CyDye5-dUTP incorporated in the synthesized complementary strand; 3' TTTTT single-stranded linker to array surface; dsDNA, one strand shown
Method in brief: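 Per-feature fluorescence intensity (arbitrary units), read on an Axon 4000B scanner, is the binding signal. Transcription factors carrying an N-terminal polyhistidine tag and DsRed fusion were expressed in E. coli BL21-CodonPlus and purified on Ni–NTA. A custom Agilent array, made double-stranded by primer extension with Cy5-dUTP and blocked with 2% BSA, was incubated with 200 nM protein in PBS, 2% BSA, salmon testes DNA and 50 µM zinc acetate at 25 °C for 1 h and then washed.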

Sequence | binding signal
TCCTTTTCCACCGTGCCCGCGCGAAAAATGATCGCTCCTCCGGAGTCACCTAGTGCAG | 8360 fluorescence intensity (a.u.)
TTTCTCCTCGATTTGTTCAGTGTTGGTCTGTTGGACACTACGGAGTCACCTAGTGCAG | 9270 fluorescence intensity (a.u.)
CGCTCACGTGCACGCCGCACGCCGCCCCGTAACCGCGTTCCGGAGTCACCTAGTGCAG | 10500 fluorescence intensity (a.u.)
ATTCTTCCTTCCGCCTCCCCGAGTCGGCCCGCTTCATCTCCGGAGTCACCTAGTGCAG | 8110 fluorescence intensity (a.u.)
AGCACTGGTAGATGATAATTCGGTTATACTCCGTCCGAACCGGAGTCACCTAGTGCAG | 9080 fluorescence intensity (a.u.)
ATCAAACGACCGCGCACTTTCATACACTACAGCTAGCACGCGGAGTCACCTAGTGCAG | 9140 fluorescence intensity (a.u.)
TCTTTTTCTATCATTTGATTTATTGTTAAATATACTTTTACGGAGTCACCTAGTGCAG | 9380 fluorescence intensity (a.u.)
CCAACCACTCCATCATCATTCGCAATCCAATCTCGCTCTTCGGAGTCACCTAGTGCAG | 9230 fluorescence intensity (a.u.)
TACTACGATAATGTCTCATCATGTACTAGGTAGTTATATTCGGAGTCACCTAGTGCAG | 9300 fluorescence intensity (a.u.)
ACATGTGTACATATAGACATCCTCCTTGCCATAACCACTTCGGAGTCACCTAGTGCAG | 8490 fluorescence intensity (a.u.)
TACCGGTTAAAACGCCCAAGTCAGTGGCTCTCGTCCTCCTCGGAGTCACCTAGTGCAG | 8860 fluorescence intensity (a.u.)
CTGTGCGGGAGGTGGAGATGGAGATGGTGGGTGGATCGGACGGAGTCACCTAGTGCAG | 8630 fluorescence intensity (a.u.)
GTCTAGTATAAATCAACGCCACACCACTTGCCTAGTCATCCGGAGTCACCTAGTGCAG | 8070 fluorescence intensity (a.u.)
GGAGGGGCGGGGTGGCGCGGCGAGGCCGGCGACAAGGCCGCGGAGTCACCTAGTGCAG | 9130 fluorescence intensity (a.u.)
TAATGCTCCACCACGCCGCCACGCGCTCGATTTCACTCGCCGGAGTCACCTAGTGCAG | 9400 fluorescence intensity (a.u.)
TGACAAGTTTCATGTTTATATTTAGGATGCTACACACTTTCGGAGTCACCTAGTGCAG | 10800 fluorescence intensity (a.u.)
AACAGAAACATCCTCGTCAGCCGATCTGTTCACCAGTCTCCGGAGTCACCTAGTGCAG | 9480 fluorescence intensity (a.u.)
TACTACTCTTGTTTGTGTTTCCACACACTTCACCGGGTCTCGGAGTCACCTAGTGCAG | 8170 fluorescence intensity (a.u.)
CAACGTGATACTCTCCCACGCCACCGCCATCGAGATATACCGGAGTCACCTAGTGCAG | 8810 fluorescence intensity (a.u.)
GATTTTTGCATGTTTTACCTCTGTTTAAATTTGAACCAACCGGAGTCACCTAGTGCAG | 10000 fluorescence intensity (a.u.)
AGTTTGGTGGAAGGTTGCCAATGGTTTGTACTCTGATTATCGGAGTCACCTAGTGCAG | 8220 fluorescence intensity (a.u.)

Sequence | binding signal
TAACAGGGAAAAGAACAAGAGCCCATAATTTATTTCATTTCGGAGTCACCTAGTGCAG | 8050 fluorescence intensity (a.u.)
CTCCTCGCTTTCCATTCCATTCAACCATCTCAATCAATCTCGGAGTCACCTAGTGCAG | 9250 fluorescence intensity (a.u.)
CACTTGTTGTCTATTACATGTGGGTCCTCATGTGCCTATACGGAGTCACCTAGTGCAG | 8090 fluorescence intensity (a.u.)
GTGTGTTGGGTTCGGTTCGCTTGGCCGCCTCCGCCTCCGCCGGAGTCACCTAGTGCAG | 12400 fluorescence intensity (a.u.)
CACTATCGGCAGTGCAGCCGGCGGCTGGGGCGGGGAGTACCGGAGTCACCTAGTGCAG | 9540 fluorescence intensity (a.u.)
AGTACATGGGCTTTCCATAATTGGTTTATACGTGGTTATTCGGAGTCACCTAGTGCAG | 8260 fluorescence intensity (a.u.)
GCCGCACTATAAATTAGTCATGCACAGTTGCATCCATGGCCGGAGTCACCTAGTGCAG | 8120 fluorescence intensity (a.u.)
TTGATTTTTTTCCCAGTCAAACTCTATTAAATTTGACTAACGGAGTCACCTAGTGCAG | 9340 fluorescence intensity (a.u.)
ACCGCCGCATCCCGTCCATCCGGCCGGCCGGCGGCCGCCACGGAGTCACCTAGTGCAG | 9870 fluorescence intensity (a.u.)
GTGTTGTATACTATTGCATGATCTTTATAATTTCTTTGTTCGGAGTCACCTAGTGCAG | 12600 fluorescence intensity (a.u.)
CCCCATCTGATCTCACAAACATTATTTCTCTCTCTTTTTTCGGAGTCACCTAGTGCAG | 9020 fluorescence intensity (a.u.)
AGATTTGGCGCCTCTTTTCATCGCCATCTTTGACCGCGCACGGAGTCACCTAGTGCAG | 8800 fluorescence intensity (a.u.)
ATCTCTCCTCTCGCTCTCTAGGTGTTTATCACAAACACTCCGGAGTCACCTAGTGCAG | 8120 fluorescence intensity (a.u.)
CATGTTGTTCTGTTTGATGTTGCCCACTACGGTCTTTAGTCGGAGTCACCTAGTGCAG | 10900 fluorescence intensity (a.u.)
TGCTCTTGCTCTTCTGGTTTCATGAGACGCGTGTTGCCATCGGAGTCACCTAGTGCAG | 8400 fluorescence intensity (a.u.)
GATCTGTTCTTTGTTATGCTGCCATGTTCTACCTGAAGATCGGAGTCACCTAGTGCAG | 9250 fluorescence intensity (a.u.)
GGCGGCGGGTGGGAGGGGCGGCGATGGCTTCGGCAGCCGCCGGAGTCACCTAGTGCAG | 9000 fluorescence intensity (a.u.)
TTTAATTAATTATGTGTTAATAGTTTTGCATGTCTCGTATCGGAGTCACCTAGTGCAG | 8700 fluorescence intensity (a.u.)
TTTTCCTCCTTATCCGATGGGCCTTCCGTTTCTCAAGACACGGAGTCACCTAGTGCAG | 9130 fluorescence intensity (a.u.)
TCTCAGCAGGGGAGGGGAGGGGAGGGGATCCTGGTGAGGTCGGAGTCACCTAGTGCAG | 15700 fluorescence intensity (a.u.)
CTTTTTTTCCAACGTTTGACCATTTGTCTTATTCAAAAAACGGAGTCACCTAGTGCAG | 8560 fluorescence intensity (a.u.)

Shown with tabs: part of the list above.
Sequence	binding signal
AGTACATGGGCTTTCCATAATTGGTTTATACGTGGTTATTCGGAGTCACCTAGTGCAG	8260 fluorescence intensity (a.u.)
GCCGCACTATAAATTAGTCATGCACAGTTGCATCCATGGCCGGAGTCACCTAGTGCAG	8120 fluorescence intensity (a.u.)

Following part

Sequence | binding signal
AAAATGTTGTTTTTTTCTTCACTTTTGTTTTCCTTTTTTTCGGAGTCACCTAGTGCAG | 9300 fluorescence intensity (a.u.)
CATGACAAGTGAATGCAGCGACCTTTTTGCCTTTGCTTTGCGGAGTCACCTAGTGCAG | 8420 fluorescence intensity (a.u.)
GACACAACTTTTTTTTAAAAAAAAAAACTCCAAGCAACATCGGAGTCACCTAGTGCAG | 8480 fluorescence intensity (a.u.)
ACAACAGCTTGCAACGCTTACTCTTTTTTATTCCTTCTATCGGAGTCACCTAGTGCAG | 8690 fluorescence intensity (a.u.)
TTTACTCACTCCCAAAATTTAAATTTCATATATCTGTATCCGGAGTCACCTAGTGCAG | 9120 fluorescence intensity (a.u.)
CAACTACCGACCTCACTTCCACGCCCACCGTCGTCGACTCCGGAGTCACCTAGTGCAG | 8160 fluorescence intensity (a.u.)
TTTGTGTCACTTTTAAACATGTTCACGTCATTATTTTAGTCGGAGTCACCTAGTGCAG | 9290 fluorescence intensity (a.u.)
GGTTGGGTTGGTCTGAATGAACCTTTGAGCTGCGTCGCAACGGAGTCACCTAGTGCAG | 11900 fluorescence intensity (a.u.)
CGCCATCCTCGCTGACCATCTTGTCCTTGCTGTCGCTGAGCGGAGTCACCTAGTGCAG | 9200 fluorescence intensity (a.u.)
TACTAGGCTCTACTACACCCATTTCTACCTCACACACCTACGGAGTCACCTAGTGCAG | 9410 fluorescence intensity (a.u.)
AGTTCATCATATCCAGTTGCATACTCGCTCCGTGTTTTAACGGAGTCACCTAGTGCAG | 10700 fluorescence intensity (a.u.)
CTTGTTTGGGCCTCTCGCGAGTTATCTATGTACCGCCGTACGGAGTCACCTAGTGCAG | 10100 fluorescence intensity (a.u.)
TTATCCTATTTGTACCATATATTTTATGATATATTTCCTACGGAGTCACCTAGTGCAG | 8180 fluorescence intensity (a.u.)
TCTCGTGTTTTTCCTATTCCTCCGTTTTTTCAATCCTACACGGAGTCACCTAGTGCAG | 10500 fluorescence intensity (a.u.)
GCTAGGGGAGGGAGAGGCGGCGGCGGCGGTGGTAGCCGGACGGAGTCACCTAGTGCAG | 9480 fluorescence intensity (a.u.)
GTTGTGAGTTTCTGCGTTGTACTGTGTAATTAAAAAAAAACGGAGTCACCTAGTGCAG | 8810 fluorescence intensity (a.u.)
GTTCATACCGCTCTCGTTCGTTCGCGGCTCCTTCCTGCTGCGGAGTCACCTAGTGCAG | 11300 fluorescence intensity (a.u.)
TCCATGCCATCTGCTGAACAGACCCATGCATCCTTCAACTCGGAGTCACCTAGTGCAG | 8920 fluorescence intensity (a.u.)
AATCGTTAAGTTTCATCCCATTTCAATCGTTAAGTTTCATCGGAGTCACCTAGTGCAG | 8700 fluorescence intensity (a.u.)
ACTACAGTCCCTCGCCATGCATGCGCCGTCAGATGTCCAACGGAGTCACCTAGTGCAG | 11500 fluorescence intensity (a.u.)
AGGCTAGGCGGTTATATGTCACTCTCATGCATATTAGTCACGGAGTCACCTAGTGCAG | 8870 fluorescence intensity (a.u.)

Part of the list above, reformatted.
Sequence	binding signal
GTTGTGAGTTTCTGCGTTGTACTGTGTAATTAAAAAAAAACGGAGTCACCTAGTGCAG	8810 fluorescence intensity (a.u.)
GTTCATACCGCTCTCGTTCGTTCGCGGCTCCTTCCTGCTGCGGAGTCACCTAGTGCAG	11300 fluorescence intensity (a.u.)

Remaining list, next part.

Sequence | binding signal
GGGCCTTAGTGGGTTCTCTTTGGGCCGGCCCCTGCATTTCCGGAGTCACCTAGTGCAG | 9190 fluorescence intensity (a.u.)
CCATGCTCGCCGGCGTATTCGGACACGGACAACAGCACCACGGAGTCACCTAGTGCAG | 10700 fluorescence intensity (a.u.)
ACCATACCACATCCTGCTACTCATAATCCATCTTGTTAAGCGGAGTCACCTAGTGCAG | 8290 fluorescence intensity (a.u.)
GTGTTCAGGGCTAGGATCAGGGTAGGAGGGGAAATTCCTTCGGAGTCACCTAGTGCAG | 8480 fluorescence intensity (a.u.)
TCCAATCTCCGTCTCCGCGTCTACTTCCGCAACTTCACCGCGGAGTCACCTAGTGCAG | 13000 fluorescence intensity (a.u.)
TACTGCCGTCGCCGTCGCCCCACGTTTCCTTCTCCAGTTTCGGAGTCACCTAGTGCAG | 8300 fluorescence intensity (a.u.)
ATCATCCTCATCGTCATCGTCTCTCTTATCTTTTCTACGGCGGAGTCACCTAGTGCAG | 13800 fluorescence intensity (a.u.)
GGCTAAACATATTCTTTAGTCCCGTTTGTAACAGGAACCGCGGAGTCACCTAGTGCAG | 8310 fluorescence intensity (a.u.)
GGATGAAGAAGGCTTTCGGGGTTTGGGATGTCGCGGGGATCGGAGTCACCTAGTGCAG | 8820 fluorescence intensity (a.u.)
CCAGATCGACCGCCACCCCATTCGGATTCATCACCTCCATCGGAGTCACCTAGTGCAG | 8250 fluorescence intensity (a.u.)
GCTGTATTCTGTGGAGTCGTATCCCAAGCCAATTTTATTTCGGAGTCACCTAGTGCAG | 8440 fluorescence intensity (a.u.)
TTTCATCAGCTCATCACTTCTGCATGCATGTTATATTCTTCGGAGTCACCTAGTGCAG | 14300 fluorescence intensity (a.u.)
ACTCATGGTGACGTGGACGAATCTCGAACATCCATTTCTCCGGAGTCACCTAGTGCAG | 8240 fluorescence intensity (a.u.)
AACAAAAGCACCCCTGTCCGATCCTATATTTGTTGCAGTTCGGAGTCACCTAGTGCAG | 9240 fluorescence intensity (a.u.)
TGTTTGCACCTTATTACGGTTCTGCGCGCTCTCTCTCTCGCGGAGTCACCTAGTGCAG | 8560 fluorescence intensity (a.u.)
GTACCTAATCCGTGCCAAGATCATGCTTTTTTTCCTCAAACGGAGTCACCTAGTGCAG | 8930 fluorescence intensity (a.u.)
GCTATAGCCTACAGCTAGTACAACACCCACGCGTCTACTACGGAGTCACCTAGTGCAG | 8110 fluorescence intensity (a.u.)
GATAATCAATCCCACGTGTATGTCAGTGGGCCCCGCGGGCCGGAGTCACCTAGTGCAG | 8210 fluorescence intensity (a.u.)
CTCCTTGTTGCTTGCTTGCTTGGTCTTTTCAGCTTCCTTTCGGAGTCACCTAGTGCAG | 10800 fluorescence intensity (a.u.)
TGTTCTTCTCTTGTAGCTGTACTGCCCAACCCTGTTATTCCGGAGTCACCTAGTGCAG | 8590 fluorescence intensity (a.u.)
CCCCAAAACCTTCTCATTTTTTTTGTAGACCAAGCCAAGCCGGAGTCACCTAGTGCAG | 8610 fluorescence intensity (a.u.)
